# Results published in the supplement of paper PMC8728848.
# This is one part of the list.
# B1: LysMD3 (Homo sapiens), Q7Z3D4 (protein)
# chain: MAGRHQNRSFPLPGVQSSGQVHAFGNCSDSDILEEDAEVYELRSRGKEKVRRSTSRDRLDDIIVLTKDIQEGDTLNAIALQYCCTVADIKRVNNLISDQDFFALRSIKIPVKKFSSLTETLCPPKGRQTSRHSSVQYSSEQQEILPANDSLAYSDSAGSFLKEVDRDIEQIVKCTDNKRENLNEVVSALTAQQMRFEPDNKNTQRKDPYYGADWGIG
# Experiments:
# Experiment in all cases: glycan array binding signal (z-score within array); higher = stronger binding
# Settings in all cases: glycan notation: IUPAC condensed, linker removed
# Gal6S(b1-4)Glc = target: Gal6S(b1-4)Glc
# Procedure, shortened: (§1)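 Glycan array binding is given as a within-array Z-score, which can be read as non-binding when negative. The arrays, 3228 of them, came from the Consortium for Functional Glycomics database and were retained only where the protein sequence was available. Z-scores were averaged across arrays of the same protein sequence at different concentrations or buffers and across linkers.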
# Gal6S(b1-4)Glc6S = target: Gal6S(b1-4)Glc6S
# Procedure, shortened: as §1
# Gal6S(b1-4)GlcNAc = target: Gal6S(b1-4)GlcNAc
# Procedure, shortened: as §1
# Gal6S(b1-4)GlcNAc6S = target: Gal6S(b1-4)GlcNAc6S
# Procedure, shortened: as §1
# GalNAc(a1-3)Gal = target: GalNAc(a1-3)Gal
# Procedure, shortened: as §1
# GalNAc(a1-3)GalNAc = target: GalNAc(a1-3)GalNAc
# Procedure, shortened: as §1
# [1] = target: GalNAc(a1-3)GalNAc(b1-3)Gal(a1-4)Gal(b1-4)Glc
# Procedure, shortened: as §1
# [2] = target: GalNAc(a1-3)GalNAc(b1-3)Gal(a1-4)Gal(b1-4)GlcNAc
# Procedure, shortened: as §1
# GalNAc(b1-3)Gal = target: GalNAc(b1-3)Gal
# Procedure, shortened: as §1
# [3] = target: GalNAc(b1-3)Gal(a1-4)Gal(b1-4)GlcNAc
# Procedure, shortened: as §1
# [4] = target: GalNAc(b1-3)Gal(a1-4)Gal(b1-4)GlcNAc(b1-3)Gal(b1-4)Glc
# Procedure, shortened: as §1
# [5] = target: GalNAc(b1-3)Gal(a1-6)Gal(b1-4)Glc
# Procedure, shortened: as §1
# GalNAc(b1-3)GalNAc = target: GalNAc(b1-3)GalNAc
# Procedure, shortened: as §1
# GalNAc(b1-3)GlcNAc = target: GalNAc(b1-3)GlcNAc
# Procedure, shortened: as §1
# GalNAc(b1-4)Gal(b1-4)Glc = target: GalNAc(b1-4)Gal(b1-4)Glc
# Procedure, shortened: as §1
# GalNAc(b1-4)GlcNAc = target: GalNAc(b1-4)GlcNAc
# Procedure, shortened: as §1
# [6] = target: GalNAc(b1-4)GlcNAc(b1-2)Man
# Procedure, shortened: as §1
# [7] = target: GalNAc(b1-4)GlcNAc(b1-2)Man(a1-3)[GalNAc(b1-4)GlcNAc(b1-2)Man(a1-6)]Man(b1-4)GlcNAc(b1-4)GlcNAc
# Procedure, shortened: as §1
# [8] = target: GalNAc(b1-4)GlcNAc(b1-3)GalNAc(b1-4)GlcNAc
# Procedure, shortened: as §1
# GalNAc(b1-4)GlcNAc6S = target: GalNAc(b1-4)GlcNAc6S
# Procedure, shortened: as §1
# GalNAc(b1-6)GalNAc = target: GalNAc(b1-6)GalNAc
# Procedure, shortened: as §1
# GalNAc3S(b1-4)GlcNAc = target: GalNAc3S(b1-4)GlcNAc
# Procedure, shortened: as §1
# GalNAc3S(b1-4)GlcNAc3S = target: GalNAc3S(b1-4)GlcNAc3S
# Procedure, shortened: as §1
# [9] = target: GalNAc3S(b1-4)[Fuc(a1-3)]GlcNAc
# Procedure, shortened: as §1
# GalNAc4S6S(b1-4)GlcNAc = target: GalNAc4S6S(b1-4)GlcNAc
# Procedure, shortened: as §1
# GalNAc6S(b1-4)GlcNAc = target: GalNAc6S(b1-4)GlcNAc
# Procedure, shortened: as §1
# Glc(a1-4)Glc = target: Glc(a1-4)Glc
# Procedure, shortened: as §1
# [10] = target: Glc(a1-4)Glc(a1-4)Glc(a1-4)Glc
# Procedure, shortened: as §1
# Glc(a1-6)Glc(a1-6)Glc = target: Glc(a1-6)Glc(a1-6)Glc
# Procedure, shortened: as §1
# [11] = target: Glc(a1-6)Glc(a1-6)Glc(a1-6)Glc
# Procedure, shortened: as §1
# Glc(b1-4)Glc = target: Glc(b1-4)Glc
# Procedure, shortened: as §1
# Glc(b1-6)Glc = target: Glc(b1-6)Glc
# Procedure, shortened: as §1
# GlcA(b1-3)Gal = target: GlcA(b1-3)Gal
# Procedure, shortened: as §1
# GlcA(b1-3)GlcNAc = target: GlcA(b1-3)GlcNAc
# Procedure, shortened: as §1
# GlcA(b1-6)Gal = target: GlcA(b1-6)Gal
# Procedure, shortened: as §1
# [12] = target: GlcA3S(b1-3)Gal(b1-4)GlcNAc(b1-2)Man
# Procedure, shortened: as §1
# [13] = target: GlcA3S(b1-3)Gal(b1-4)GlcNAc(b1-3)Gal(b1-4)Glc
# Procedure, shortened: as §1
# [14] = target: GlcNAc(a1-3)Gal(b1-4)GlcNAc
# Procedure, shortened: as §1
# [15] = target: GlcNAc(a1-4)Gal(b1-3)GlcNAc
# Procedure, shortened: as §1
# [16] = target: GlcNAc(a1-4)Gal(b1-4)GalNAc
# Procedure, shortened: as §1
# [17] = target: GlcNAc(a1-4)Gal(b1-4)GlcNAc
# Procedure, shortened: as §1
# [18] = target: GlcNAc(a1-4)Gal(b1-4)GlcNAc(b1-3)Gal(b1-4)Glc
# Procedure, shortened: as §1
# [19] = target: GlcNAc(a1-4)Gal(b1-4)GlcNAc(b1-3)Gal(b1-4)GlcNAc
# Procedure, shortened: as §1
# [20] = target: GlcNAc(a1-4)Gal(b1-4)GlcNAc(b1-3)Gal(b1-4)GlcNAc(b1-3)Gal(b1-4)GlcNAc
# Procedure, shortened: as §1
# [21] = target: GlcNAc(a1-4)Gal(b1-4)GlcNAc(b1-3)Gal(b1-4)[Fuc(a1-3)]GlcNAc(b1-3)Gal(b1-4)[Fuc(a1-3)]GlcNAc
# Procedure, shortened: as §1
binder,measurement,setting,value
B1,glycan array binding signal (z-score),Gal6S(b1-4)Glc,-0.764
same,glycan array binding signal (z-score),Gal6S(b1-4)Glc6S,-0.803
same,glycan array binding signal (z-score),Gal6S(b1-4)GlcNAc,-0.103
same,glycan array binding signal (z-score),Gal6S(b1-4)GlcNAc6S,-0.748
same,glycan array binding signal (z-score),GalNAc(a1-3)Gal,0.335
same,glycan array binding signal (z-score),GalNAc(a1-3)GalNAc,0.973
same,glycan array binding signal (z-score),[1],0.102
same,glycan array binding signal (z-score),[2],0.082
same,glycan array binding signal (z-score),GalNAc(b1-3)Gal,0.293
same,glycan array binding signal (z-score),[3],1.44
same,glycan array binding signal (z-score),[4],-0.098
same,glycan array binding signal (z-score),[5],0.631
same,glycan array binding signal (z-score),GalNAc(b1-3)GalNAc,1.67
same,glycan array binding signal (z-score),GalNAc(b1-3)GlcNAc,1.85
same,glycan array binding signal (z-score),GalNAc(b1-4)Gal(b1-4)Glc,-1.4
same,glycan array binding signal (z-score),GalNAc(b1-4)GlcNAc,0.627
same,glycan array binding signal (z-score),[6],1.1
same,glycan array binding signal (z-score),[7],-0.698
same,glycan array binding signal (z-score),[8],0.876
same,glycan array binding signal (z-score),GalNAc(b1-4)GlcNAc6S,-1.05
same,glycan array binding signal (z-score),GalNAc(b1-6)GalNAc,-0.494
same,glycan array binding signal (z-score),GalNAc3S(b1-4)GlcNAc,-0.843
same,glycan array binding signal (z-score),GalNAc3S(b1-4)GlcNAc3S,-0.621
same,glycan array binding signal (z-score),[9],-0.424
same,glycan array binding signal (z-score),GalNAc4S6S(b1-4)GlcNAc,-0.771
same,glycan array binding signal (z-score),GalNAc6S(b1-4)GlcNAc,-0.435
same,glycan array binding signal (z-score),Glc(a1-4)Glc,0.632
same,glycan array binding signal (z-score),[10],0.138
same,glycan array binding signal (z-score),Glc(a1-6)Glc(a1-6)Glc,-0.523
same,glycan array binding signal (z-score),[11],-0.734
same,glycan array binding signal (z-score),Glc(b1-4)Glc,0.404
same,glycan array binding signal (z-score),Glc(b1-6)Glc,-0.137
same,glycan array binding signal (z-score),GlcA(b1-3)Gal,0.593
same,glycan array binding signal (z-score),GlcA(b1-3)GlcNAc,0.422
same,glycan array binding signal (z-score),GlcA(b1-6)Gal,-0.138
same,glycan array binding signal (z-score),[12],0.105
same,glycan array binding signal (z-score),[13],-0.133
same,glycan array binding signal (z-score),[14],0.184
same,glycan array binding signal (z-score),[15],0.45
same,glycan array binding signal (z-score),[16],-0.452
same,glycan array binding signal (z-score),[17],-0.53
same,glycan array binding signal (z-score),[18],0.061
same,glycan array binding signal (z-score),[19],0.802
same,glycan array binding signal (z-score),[20],0.211
same,glycan array binding signal (z-score),[21],0.527

# Random excerpt: 4 entries already listed
binder,measurement,setting,value
B1,glycan array binding signal (z-score),[17],-0.53
same,glycan array binding signal (z-score),[7],-0.698
same,glycan array binding signal (z-score),GalNAc(b1-4)Gal(b1-4)Glc,-1.4
same,glycan array binding signal (z-score),[8],0.876
